# Reference: patent US7250304B2, “Functional assay of high-density lipoprotein” (The Regents of the University of California, priority 2000, dated 2007)
# At least one structure is not confirmed: it was looked up by name or label, or the drawing left a doubt.
# Assay: Non-enzymatic oxidation of PAPC to POVPC, PGPC, PEIPC (ESI-MS)
# Conditions: 10 μg PAPC, 8 hours
compound,measurement,value
"CCCCC[C@@H](/C=C/C=C\CCCCCCCC(=O)O)OO [13(S)-HPODE, 13(S)-hydroperoxyoctadecadienoic acid]",molar ratio (oxidant:PAPC) required for enhanced oxidation of PAPC,approximately 1:8
"CCCCC[C@@H](/C=C/C=C\C/C=C\C/C=C\CCCC(=O)O)OO [15(S)-HPETE, 15(S)-hydroperoxyeicosatetraenoic acid]",molar ratio (oxidant:PAPC) required for enhanced oxidation of PAPC,approximately 1:8
